From patent publication US20060257938A1, “Method of screening for drugs that block ligand binding to a lipid binding protein” (priority 2005, published 2006)
Where a chain is given by its changes, count along the chain named.

B1: 117W, 72A (protein, listed as Rattus norvegicus)
chain: AFDGTWKVDRNENYEKFMEKMGINVVKRKLGAHDNLKLTITQEGNKFTVKESSNFRNIDVVFELGVDFAYSAADGTELTGTWTMEGNKLVGKFKRVDNGKELIAVREISGNELIQTWTYEGVEAKRIFKKE
modifications: PEPTIDE (1)...(131) wild-type rat intestinal fatty acid binding protein
B2: 119C, 72A (protein, listed as Rattus norvegicus)
chain: B1 chain with W117Y, Y119C
modifications: PEPTIDE (1)...(131) wild-type rat intestinal fatty acid binding protein
B3: 117S, 72A (protein, listed as Rattus norvegicus)
chain: B1 chain with W117S
modifications: PEPTIDE (1)...(131) wild-type rat intestinal fatty acid binding protein
B4: 119A, 72A (protein, listed as Rattus norvegicus)
chain: B1 chain with W117Y, Y119A
modifications: PEPTIDE (1)...(131) wild-type rat intestinal fatty acid binding protein
B5: 117E, 72A (protein, listed as Rattus norvegicus)
chain: B1 chain with W117E
modifications: PEPTIDE (1)...(131) wild-type rat intestinal fatty acid binding protein
B6: 117F, 72A (protein, listed as Rattus norvegicus)
chain: B1 chain with W117F
modifications: PEPTIDE (1)...(131) wild-type rat intestinal fatty acid binding protein
B7: 117Q, 72A (protein, listed as Rattus norvegicus)
chain: B1 chain with W117Q
modifications: PEPTIDE (1)...(131) wild-type rat intestinal fatty acid binding protein
B8: 117Y, 72A (protein, listed as Rattus norvegicus)
chain: B1 chain with W117Y
modifications: PEPTIDE (1)...(131) wild-type rat intestinal fatty acid binding protein
B9: 117H, 72A (protein, listed as Rattus norvegicus)
chain: B1 chain with W117H
modifications: PEPTIDE (1)...(131) wild-type rat intestinal fatty acid binding protein
B10: 117K, 72A (protein, listed as Rattus norvegicus)
chain: B1 chain with W117K
modifications: PEPTIDE (1)...(131) wild-type rat intestinal fatty acid binding protein
B11: 117T, 72A (protein, listed as Rattus norvegicus)
chain: B1 chain with W117T
modifications: PEPTIDE (1)...(131) wild-type rat intestinal fatty acid binding protein
B12: 117V, 72A (protein, listed as Rattus norvegicus)
chain: B1 chain with W117V
modifications: PEPTIDE (1)...(131) wild-type rat intestinal fatty acid binding protein
B13: 117L, 72A (protein, listed as Rattus norvegicus)
chain: B1 chain with W117L
modifications: PEPTIDE (1)...(131) wild-type rat intestinal fatty acid binding protein
B14: 117P, 72A (protein, listed as Rattus norvegicus)
chain: B1 chain with W117P
modifications: PEPTIDE (1)...(131) wild-type rat intestinal fatty acid binding protein
B15: 119G, 72A (protein, listed as Rattus norvegicus)
chain: B1 chain with W117Y, Y119G
modifications: PEPTIDE (1)...(131) wild-type rat intestinal fatty acid binding protein
B16: 117N, 72A (protein, listed as Rattus norvegicus)
chain: B1 chain with W117N
modifications: PEPTIDE (1)...(131) wild-type rat intestinal fatty acid binding protein
B17: 102E, 72A (protein, listed as Rattus norvegicus)
chain: B1 chain with L102E, W117Y
modifications: PEPTIDE (1)...(131) wild-type rat intestinal fatty acid binding protein
B18: 119F, 72A (protein, listed as Rattus norvegicus)
chain: B1 chain with W117Y, Y119F
modifications: PEPTIDE (1)...(131) wild-type rat intestinal fatty acid binding protein
B19: 117R, 72A (protein, listed as Rattus norvegicus)
chain: B1 chain with W117R
modifications: PEPTIDE (1)...(131) wild-type rat intestinal fatty acid binding protein
B20: 119H, 72A (protein, listed as Rattus norvegicus)
chain: B1 chain with W117Y, Y119H
modifications: PEPTIDE (1)...(131) wild-type rat intestinal fatty acid binding protein
B21: 117I, 72A (protein, listed as Rattus norvegicus)
chain: B1 chain with W117I
modifications: PEPTIDE (1)...(131) wild-type rat intestinal fatty acid binding protein
B22: 117G, 72A (protein, listed as Rattus norvegicus)
chain: B1 chain with W117G
modifications: PEPTIDE (1)...(131) wild-type rat intestinal fatty acid binding protein
B23: 119I, 72A (protein, listed as Rattus norvegicus)
chain: B1 chain with W117Y, Y119I
modifications: PEPTIDE (1)...(131) wild-type rat intestinal fatty acid binding protein
B24: 102D, 72A (protein, listed as Rattus norvegicus)
chain: B1 chain with L102D, W117Y
modifications: PEPTIDE (1)...(131) wild-type rat intestinal fatty acid binding protein

assay: Baseline fluorescence ratio Ro of probe in absence of analyte; settings: baseline fluorescence ratio of probe

Row | Molecule | Ro
1 | B1 | 0.294
2 | B2 | 0.679
3 | B3 | 0.357
4 | B4 | 0.304

same assay, conditions: baseline fluorescence ratio of probe, no fatty acid

Row | Molecule | AvgOfRo | Ro
5 | B5 | 0.20 | 0.196
6 | B6 | 0.19 | 
7 | B7 | 0.37 | 0.368
8 | B8 | 0.18 | 
9 | B9 | 0.31 | 0.311
10 | B10 | 0.19 | 
11 | B11 | 0.20 | 0.197
12 | B1 | 0.29 | 
13 | B12 | 0.16 | 0.153
14 | B13 | 0.11 | 
15 | B14 | 0.41 | 
16 | B15 | 0.25 | 
17 | B16 | 0.18 | 
18 | B2 | 0.68 | 
19 | B17 | 0.41 | 
20 | B3 | 0.36 | 0.357
21 | B18 | 0.20 | 
22 | B19 | 0.41 | 
23 | B20 | 0.33 | 
24 | B21 | 0.14 | 0.133
25 | B4 | 0.31 | 0.304
26 | B22 | 0.36 | 
27 | B23 | 0.33 | 0.303
28 | B24 | 0.41 | 
